Test results taken from PubChem BioAssay AID2685 (National Center for Advancing Translational Sciences (NCATS), 2010).
Some of the results follow. The main result of the screen is listed elsewhere. These columns were measured beside it and carry no call. The list favours compounds with an active or inconclusive main result. Potencies come from curve fits of mixed quality, noted in brackets.

Assay: qHTS Assay for Lipid Storage Modulators in Drosophila S3 Cells;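 for cell number change: cells counted by Cell Tracker Red CMTPX staining in the red channel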
Settings: BODIPY lipid droplet fluorescence, 18-24 h; for cell number change: measured here: cell count max response, cells fed with added oleic acid
Method in brief: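 Drosophila S3 cells loaded with oleic acid (400 uM, as added) and compounds at several concentrations; lipid droplets imaged by 488-nm laser-scanning cytometry, 500–530 nm intensity and object ratio to cell channel. Percent activity normalized to 20 uM Triacsin C.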

[1] = measured here: lipid fluorescence (Fed channel) AC50, cells fed with added oleic acid
[2] = measured here: cell number channel AC50, cells fed with added oleic acid

Work on CC(C)(C)NC(=O)/C=C/c1cccs1 yielded a cell number change of 16.6%.

For COc1ccc(C(=O)NC(=S)Nc2nc(-c3ccc(OC)c(Br)c3)cs2)cc1Br, the cell number change was 0.885% and the AC50 [1] was 6.51 µM [rising, partial curve].

For COC(=O)c1cccc(C23CC4(C2)[C@H](CN(Cc2ccc(-c5ccccc5)cc2)[C@@H]4c2ccccc2)C3c2ccccc2)c1 (stereo partly specified), the cell number change was -63.8%, the AC50 [2] was 1.03 µM [falling, full curve] and the AC50 [1] was 1.3 µM [falling, full curve].

With CCCCN(CC)c1nc(-c2ccncc2)nc2ccccc12 the cell number change was -58.9%, the AC50 [2] was 29.1 µM [falling, single point] and the AC50 [1] was 0.231 µM [rising, full curve].

For COc1ccc(C(=O)NC(=S)NNC(=O)c2cnccn2)cc1, the AC50 [1] was 0.291 µM [falling, full curve].

With O=C1OC(c2ccccc2)/C(=C(/O)c2ccc(Cl)cc2)C1=O (stereo unspecified) the cell number change was -43.7% and the AC50 [2] was 16.4 µM [falling, single point].

With O=C(/C=C/c1ccc(Br)o1)Nc1nccs1 the cell number change was -22%.

In the case of CC(C)(C)NC(=O)CSc1ccc(C(C)(C)C)cc1, the cell number change is reported as -36.1%, the AC50 [2] is reported as 20.6 µM [falling, single point] and the AC50 [1] is reported as 20.6 µM [falling, partial curve].

Cc1ccc(/C([O-])=C(/C(=S)NCc2ccccc2)[n+]2ccccc2)cc1[N+](=O)[O-] showed a cell number change of 1.78%.

In the case of NC(=O)c1ccc(N2CCN(c3ccccc3O)CC2)c([N+](=O)[O-])c1, the AC50 [2] is reported as 0.103 µM [rising, single point] and the AC50 [1] is reported as 0.116 µM [rising, full curve].

With O=C(COc1ccc(Br)cc1Br)NC(=S)N1CCCc2ccccc21 the cell number change was 40%, the AC50 [2] was 8.2 µM [rising, partial curve] and the AC50 [1] was 6.51 µM [rising, single point].

OC(CN1CCOCC1)CN(c1ccccc1)c1ccccc1 (stereo unspecified) showed a cell number change of 1.11%.

With O=C(CC12CC3CC(CC(C3)C1)C2)Nc1cccc2ncccc12 the cell number change was 74.5% and the AC50 [2] was 13 µM [rising, partial curve].

With O=[N+]([O-])c1cc(Cl)c(O)c2ncccc12 the cell number change was 31.1%.

In the case of Cc1cc(-c2nnc(SCC(=O)NC3CC3)n2C(C)C)cs1, the cell number change is reported as 20.8% and the AC50 [2] is reported as 0.158 µM [rising, full curve, poor fit].

With Cc1cc(C)n2nc(SCc3nnc(SCc4ccccc4)s3)nc2n1 the cell number change was -32.1% and the AC50 [2] was 18.4 µM [falling, single point].

For Cc1ccc(S(=O)(=O)NCC(=O)OCC(=O)N2CCc3ccccc32)cc1, the cell number change was 12.5%, the AC50 [2] was 0.00411 µM [rising, full curve, poor fit] and the AC50 [1] was 0.291 µM [falling, full curve].

For O=C(N[C@@H](Cc1c[nH]c2ccccc12)C(=O)O)c1ccccc1Cl, the cell number change was -64.6% and the AC50 [2] was 29.1 µM [falling, partial curve, poor fit].

Compound CCN(CC)C(=O)c1ccccc1NS(=O)(=O)c1ccc(OC)c(C(=O)N2CCOCC2)c1 has a cell number change of -14.5%.

With CC1(C)CC2CC(C)(CN2S(=O)(=O)c2ccc(F)cc2F)C1 (stereo unspecified) the cell number change was -6.27% and the AC50 [1] was 29.1 µM [falling, single point].

For N#CC(NC(=O)OCc1ccccc1)c1ccccc1 (stereo unspecified), the cell number change was 13.1% and the AC50 [1] was 0.326 µM [rising, partial curve, poor fit].

With CCOc1cc(C(=S)N2CCOCC2)ccc1OC(=O)c1cccc(C)c1 the cell number change was -1.14% and the AC50 [1] was 16.4 µM [falling, single point].

For COc1ccc(NC(=O)CSc2nnc(Cc3ccccc3)c(=O)n2N)cc1, the cell number change was -75%, the AC50 [2] was 9.2 µM [falling, partial curve] and the AC50 [1] was 0.651 µM [rising, single point].

Work on O=C1CC(NS(=O)(=O)c2cccnc2)CN1c1ccccc1 (stereo unspecified) yielded a cell number change of 8.84%.

With COC/C=C/C1=CC2=CC(=O)C(C)(OC(=O)c3cnc4ccccc4n3)C(=O)C2=CN1C1CCCCC1 (stereo unspecified) the cell number change was 15% and the AC50 [2] was 2.31 µM [rising, partial curve].

For CN(C)/C=N/c1c(C#N)cnn1-c1ccccc1, the cell number change was 7.35% and the AC50 [1] was 0.82 µM [rising, single point].

With COCCCNC(=O)CC(NS(=O)(=O)c1ccc(OC)cc1)c1ccc(OC)cc1 (stereo unspecified) the cell number change was -1.5% and the AC50 [1] was 0.116 µM [falling, full curve, poor fit].

For O=C1CC(c2ccccc2)CC(O)=C1C=NCCCO (stereo unspecified), the cell number change was 4.54% and the AC50 [1] was 0.116 µM [falling, full curve, poor fit].

In the case of S=C(Nc1ccc2c(c1)OCO2)NC1CCN(Cc2ccccc2)CC1, the AC50 [2] is reported as 0.58 µM [rising, single point].

With Cc1ccc(C)c(NC(=O)CN2C(=O)CNC2=O)c1 the AC50 [2] was 0.00461 µM [rising, full curve, poor fit].

With CC(=O)N1CCN(c2ccc(S(C)(=O)=O)cc2[N+](=O)[O-])CC1 the cell number change was -53.8% and the AC50 [2] was 6.51 µM [falling, full curve].

In the case of Cc1nc(N2CCCCC2)c2ccsc2n1, the cell number change is reported as 59.7%, the AC50 [2] is reported as 29.1 µM [rising, single point] and the AC50 [1] is reported as 20.6 µM [rising, partial curve].

In the case of COc1ccccc1-c1cc(C(=O)NC(C)C)no1, the cell number change is reported as -2.3% and the AC50 [2] is reported as 7.31 µM [rising, partial curve].

In the case of O=C(c1ccccc1)c1ccc(Oc2ncccn2)cc1, the cell number change is reported as 18.8% and the AC50 [2] is reported as 2.59 µM [rising, partial curve].

With COc1ccc(CCC(C)N2CCC(CO)(Cc3ccccc3)CC2)cc1 (stereo unspecified) the cell number change was -24.7%.

With O=C(NC(=S)Nc1ccc(N2CCCC2)cc1)c1ccccc1[N+](=O)[O-] the cell number change was 12.9% and the AC50 [1] was 0.103 µM [rising, full curve, poor fit].

For O=C(O)CSc1nnc(CNc2ccc(Cl)cc2)n1Cc1ccccc1, the cell number change was -24.4% and the AC50 [1] was 20.6 µM [falling, partial curve].

In the case of COc1ccc(S(=O)(=O)N2CCN(C(=O)c3cc(C)oc3C)CC2)cc1, the cell number change is reported as 16.9% and the AC50 [2] is reported as 0.461 µM [rising, full curve, poor fit].

For Cc1ccc(NS(=O)(=O)c2ccc(C3CCCCC3)cc2)cc1, the cell number change was -69.2% and the AC50 [2] was 11.6 µM [falling, partial curve].

With CCOc1ccccc1OCCC(=O)N1CCN(S(=O)(=O)c2ccccc2[N+](=O)[O-])CC1 the cell number change was -36.2% and the AC50 [1] was 4.11 µM [falling, partial curve].

With CCn1cc(C(=O)OCc2ccccc2)c(=O)c2ccc(C)nc21 the cell number change was 5.47% and the AC50 [1] was 0.116 µM [rising, full curve, poor fit].

In the case of COc1nc(N/N=C/c2ccc(-c3ccccc3[N+](=O)[O-])o2)nc(N2CCOCC2)n1, the AC50 [1] is reported as 0.326 µM [rising, single point].

Work on COc1ccc2c(c1OC)C(=O)N(c1ccccn1)C2 yielded a cell number change of -10.3%.

In the case of NC(=O)C(c1ccccc1)C1CCCC1 (stereo unspecified), the cell number change is reported as -41%, the AC50 [2] is reported as 20.6 µM [falling, single point] and the AC50 [1] is reported as 29.1 µM [falling, single point].

With Cc1nc2c(C)cccc2cc1C(=O)N/N=C/c1ccc(O)cc1 the cell number change was 40.6%, the AC50 [2] was 18.4 µM [rising, single point] and the AC50 [1] was 16.4 µM [rising, single point].

With N#CCC(=O)NNC(=S)Nc1ccccc1C(F)(F)F the cell number change was -43.1% and the AC50 [2] was 35.5 µM [falling, partial curve, poor fit].

For CC1CCCCN1CCNC(=O)C1CCN(S(=O)(=O)c2cccc3nsnc23)CC1 (stereo unspecified), the cell number change was 2.28% and the AC50 [1] was 32.6 µM [rising, single point].

For CCCn1c2ccccc2c2cn[nH]c(=O)c21, the cell number change was 18.2% and the AC50 [1] was 20.6 µM [rising, single point].

In the case of Cc1ccc(F)cc1NC(=O)C1CCCN(c2ncccn2)C1 (stereo unspecified), the AC50 [2] is reported as 0.0731 µM [rising, full curve, poor fit] and the AC50 [1] is reported as 0.0651 µM [rising, full curve, poor fit].

With Cc1ccc(NC(=O)Nc2nnc(CSCCOc3ccc(Cl)cc3)s2)cc1 the cell number change was -17.3% and the AC50 [1] was 18.4 µM [rising, single point].

In the case of Cn1c(=O)c2c(nc(Oc3ccc(-c4ccccc4)cc3)n2C)n(C)c1=O, the cell number change is reported as 13.1%, the AC50 [2] is reported as 6.51 µM [rising, single point] and the AC50 [1] is reported as 4.11 µM [rising, single point].

For CCCN1C(=O)/C(=C\C=C2/C=CN(CC)c3ccccc32)SC1=S, the cell number change was -27.8%, the AC50 [2] was 2.31 µM [falling, partial curve] and the AC50 [1] was 0.82 µM [falling, full curve, poor fit].

Work on CN(CCOc1ccccc1)CC(=O)Nc1ccc(Br)cc1F yielded a cell number change of 5.26%.

For CCOC(=O)Cc1nn(C)c(=O)c2ccccc12, the cell number change was 22.2% and the AC50 [1] was 29.1 µM [rising, single point].

In the case of COc1ccc(-c2ccc(C#N)c(SCC(=O)NCc3ccco3)n2)cc1OC, the cell number change is reported as 20.1% and the AC50 [1] is reported as 0.13 µM [rising, full curve, poor fit].

In the case of O=C1CC(N2CCN(c3ccc(Cl)cc3)CC2)C(=O)N1c1ccccc1 (stereo unspecified), the cell number change is reported as -19.7% and the AC50 [2] is reported as 2.31 µM [falling, single point].

In the case of O=C(CC1SCCNC1=O)Nc1cccc(Cl)c1 (stereo unspecified), the cell number change is reported as 3.75% and the AC50 [1] is reported as 10.3 µM [falling, partial curve].

For Cc1ccc(C(=O)NCc2ccccn2)c(Cl)c1, the cell number change was 21.4%.

For COc1ccc(OC)c(CN2CCN(C(=O)c3ccco3)CC2)c1, the cell number change was 4.4% and the AC50 [1] was 29.1 µM [rising, single point].

With C=CCNC(=O)c1ccccc1NS(=O)(=O)c1ccccc1 the cell number change was -5.25% and the AC50 [1] was 1.46 µM [rising, full curve].

With Cc1[nH]cnc1C(=O)N/N=C/c1c(Cl)cccc1Cl the cell number change was 18.3% and the AC50 [1] was 2.31 µM [rising, partial curve].

In the case of CCOC(=O)C(NCc1ccc2c(c1)OCO2)(NC(=O)c1ccccc1)C(F)(F)F (stereo unspecified), the cell number change is reported as -59.2%, the AC50 [2] is reported as 18.4 µM [falling, partial curve] and the AC50 [1] is reported as 7.31 µM [falling, partial curve].
